T/C and survivor count data for 26 compounds are collected here from PubChem BioAssay AID248 (DTP/NCI, 2004).

This experiment has as its system L1210 leukemia ip in BDF1 mice, survival T/C. In words: NCI In Vivo Anticancer Drug Screen. Data for tumor model L1210 Leukemia (intraperitoneal) in B6D2F1 (BDF1) mice. The conditions noted are these: T/C endpoint: mean survival time, higher T/C = longer survival.
Where [1] appears, read: dose: 100.0 mg/kg/injection, schedule: Q01DX001 (ip), vehicle: saline.
Setting [2] is: dose: 300.0 mg/kg/injection, schedule: Q01DX001 (ip), vehicle: saline.
Setting [3] is: dose: 200.0 mg/kg/injection, schedule: Q04DX003 (ip), vehicle: saline with Tween-80.
Setting [4] is: dose: 100.0 mg/kg/injection, schedule: Q04DX003 (ip), vehicle: saline with Tween-80.
Setting [5] is: dose: 400.0 mg/kg/injection, schedule: Q01DX001 (ip), vehicle: saline.
[6] abbreviates: dose: 200.0 mg/kg/injection, schedule: Q01DX009 (ip), vehicle: saline.
The mark [7] stands for this setting: dose: 400.0 mg/kg/injection, schedule: Q01DX009 (ip), vehicle: saline with Tween-80.
Setting [8] is: dose: 400.0 mg/kg/injection, schedule: Q04DX003 (ip), vehicle: saline.
The mark [9] stands for this setting: dose: 400.0 mg/kg/injection, schedule: Q01DX001 (ip), vehicle: carboxymethylcellulose (CMC).

The list is a part of this screen's results and no random one: it gathers tests that were run many times, whatever their T/C, doses with no T/C, and many T/C values between a quarter and a half above the control. Further doses and runs are listed elsewhere. T/C: endpoint of the treated group in % of that of the vehicle group. Some entries give survivors of the animals treated and no T/C: the source holds a T/C of zero for them, seemingly a mark for toxic or unscored doses. Some survivor counts are full or nearly so, which does not show that the dose was tolerated: survival well below the control is almost never listed, so the zero probably covers shortened survival too. Survivors were counted at the toxicity check, usually on the fifth day, unless a day is given; later deaths do not show. Schedules are NCI's codes, taken here to give the interval after Q, in days (D) or hours (H), and the number of doses after X. Some schedules carry Z or #; the key to these is not given. Some entries were tested several times; their values stand side by side, smallest first. Where survival is the endpoint, the PubChem record calls one and a half times the control and up active, and a quarter to a half above the control has no call in these data; cut-offs in other NCI protocols can differ.

For `COCCOC1=C(N2CC2)C(=O)C(OCCOC)=C(N2CC2)C1=O`, the T/C is 128 % of control (dose: 2.5 mg/kg/injection, schedule: Q01DX001 (ip), vehicle: saline); 125 and 130 % of control (dose: 5.0 mg/kg/injection, schedule: Q01DX001 (ip), vehicle: saline); 131 % of control (dose: 8.34 mg/kg/injection, schedule: Q01DX001 (ip), vehicle: saline); 139 % of control (dose: 12.5 mg/kg/injection, schedule: Q01DX001 (ip), vehicle: saline). The survivor count (dose: 12.5 mg/kg/injection, schedule: Q01DX009 (ip), vehicle: saline) is 4 of 6; the survivor count (dose: 16.0 mg/kg/injection, schedule: Q01DX Z (ip), vehicle: saline) is 6 of 6; the survivor count (dose: 18.75 mg/kg/injection, schedule: Q01DX001 (ip), vehicle: saline) is listed as 0 of 6; the survivor count (dose: 20.0 mg/kg/injection, schedule: Q01DX001 (ip), vehicle: saline) was 5 of 6; the survivor count (dose: 25.0 mg/kg/injection, schedule: Q01DX001 (ip), vehicle: saline) is 1 of 6; the survivor count (dose: 25.0 mg/kg/injection, schedule: Q01DX009 (ip), vehicle: saline) is recorded as 4 of 6. Besides, the survivor count by setting is: (dose: 40.0 mg/kg/injection, schedule: Q01DX001 (ip), vehicle: saline) 2 of 6; (dose: 50.0 mg/kg/injection, schedule: Q01DX001 (ip), vehicle: saline) 1 of 6; under setting [1], 0 of 6.

Turning to `CC(C)OP(=O)(OC=C(Cl)Cl)OC(C)C`, the survivor count under setting [2] is on record as 3 of 6.

As to `OC1CCCC/C1=C/C=C/c1ccccc1` (centres undefined), the survivor count under setting [3] is 6 of 6.

As for `COC(=O)C(CSC(c1ccc(N(C)C)cc1)c1ccc(N(C)C)cc1)NC(=O)OCc1ccccc1` (centres undefined), for the setting “dose: 150.0 mg/kg/injection, schedule: Q01DX001 (ip), vehicle: carboxymethylcellulose (CMC)”, the survivor count is 6 of 6.

With `CCCOC(C[N+](=O)[O-])C(Cl)(Cl)Cl` (centres undefined), the survivor count by setting is: (dose: 50.0 mg/kg/injection, schedule: Q04DX003 (ip), vehicle: saline with Tween-80) 3 of 6; under setting [4], 0 of 6 and 1 of 6; under setting [3], 0 of 6; (dose: 400.0 mg/kg/injection, schedule: Q04DX003 (ip), vehicle: saline with Tween-80) 0 of 6.

As for `Oc1ccc2ccccc2c1-c1nc2ccccc2s1`, the survivor count is, setting by setting: (dose: 100.0 mg/kg/injection, schedule: Q04DX003 (ip), vehicle: other) 0 of 3 and 1 of 3; (dose: 200.0 mg/kg/injection, schedule: Q04DX003 (ip), vehicle: other) 0 of 3; (dose: 400.0 mg/kg/injection, schedule: Q04DX003 (ip), vehicle: other) 0 of 3.

`Cc1ccc(N)cc1`: the survivor count under setting [5] was 1 of 4.

As to `C#CC[N+](CC#C)(CC#C)CC#C`, the survivor count reads like this: (dose: 100.0 mg/kg/injection, schedule: Q01DX009 (ip), vehicle: saline) 1 of 6; under setting [6], 0 of 6; (dose: 400.0 mg/kg/injection, schedule: Q01DX009 (ip), vehicle: saline) 0 of 6.

On to `CCOC(=O)c1cc(C=O)nc2c(Cl)cc(Cl)cc12`, for which the survivor count under setting [7] is listed as 3 of 6.

For the compound `CSCSCC(CO)NCc1ccccc1` (centres undefined), the survivor count by setting is: under setting [6], 1 of 6; under setting [5], 0 of 6.

For the compound `S=c1[nH]c2ccccc2[nH]c1=S`, the survivor count runs as follows: (dose: 100.0 mg/kg/injection, schedule: Q04DX002 (ip), vehicle: Klucel (hydroxypropylcellulose) (HPC)) 0 of 3; (dose: 200.0 mg/kg/injection, schedule: Q04DX002 (ip), vehicle: Klucel (hydroxypropylcellulose) (HPC)) 0 of 3; (dose: 400.0 mg/kg/injection, schedule: Q04DX002 (ip), vehicle: Klucel (hydroxypropylcellulose) (HPC)) 0 of 3.

With `O=C(O)CN(CC(=O)O)Cc1ccccc1`, the survivor count (dose: 80.0 mg/kg/injection, schedule: Q01DX001 (ip), vehicle: saline) is listed as 2 of 4; the survivor count under setting [1] is recorded as 2 of 4; the survivor count (dose: 200.0 mg/kg/injection, schedule: Q01DX001 (ip), vehicle: saline) is given as 0 of 4; the survivor count under setting [5] is 0 of 4.

As to `NCc1cc[n+]([O-])cc1`, the survivor count (dose: 100.0 mg/kg/injection, schedule: Q04DX002 (ip), vehicle: saline) was 3 of 3 and the survivor count (dose: 200.0 mg/kg/injection, schedule: Q04DX002 (ip), vehicle: saline) is 3 of 3.

Regarding `O=C(O)C(Oc1ccccc1O)C(=O)O`, the survivor count under setting [8] is 0 of 6.

Take `O=[N+]([O-])c1ccc(C[N+]23CCN(CC2)CC3)cc1`: for the setting “dose: 200.0 mg/kg/injection, schedule: Q01DX009 (ip), vehicle: saline with Tween-80”, the survivor count is 2 of 6.

Regarding `CCOC(=O)C12CCCC(C1=O)[N+](CC)(CC)CC2` (centres undefined), the survivor count under setting [2] is listed as 0 of 6.

Consider `O=C(Nc1ccccc1-c1ccc([N+](=O)[O-])cc1)c1cccc2ccccc12`, for which, under setting [4], the survivor count is given as 6 of 6.

Take `[Cl][Co][Cl].[NH-]CCC[NH-].[NH-]CCC[NH-]`: the survivor count is recorded as 1 of 6 (dose: 200.0 mg/kg/injection, schedule: Q04DX003 (ip), vehicle: saline) and 0 of 6 under setting [8].

As for `NC(=S)N/N=C/c1cc2c(cc1[N+](=O)[O-])OCO2`, under setting [9], the survivor count is recorded as 0 of 4.

Consider `CCCCNC(C)(C)C1(c2ccc(Cl)cc2)SSC(c2ccc(Cl)cc2)(C(C)(C)NCCCC)SS1` (centres undefined), for which, for the setting “dose: 400.0 mg/kg/injection, schedule: Q01DX009 (ip), vehicle: Klucel (hydroxypropylcellulose) (HPC)”, the survivor count is on record as 4 of 6.

As to `O=C1C(=O)c2ccccc2C(O)=C1c1ccccc1`, the survivor count (dose: 100.0 mg/kg/injection, schedule: Q01DX001 (ip), vehicle: carboxymethylcellulose (CMC)) is given as 1 of 4; the survivor count (dose: 200.0 mg/kg/injection, schedule: Q01DX001 (ip), vehicle: carboxymethylcellulose (CMC)) was 0 of 4; the survivor count under setting [9] is given as 0 of 4.

As to `C=CC[n+]1ccccc1/C=C/c1ccc(OC)c(OC)c1`, the survivor count is given as 5 of 6 (dose: 25.0 mg/kg/injection, schedule: Q04DX003 (ip), vehicle: Klucel (hydroxypropylcellulose) (HPC)); 0 of 6 (dose: 50.0 mg/kg/injection, schedule: Q04DX003 (ip), vehicle: Klucel (hydroxypropylcellulose) (HPC)); 6 of 6 (dose: 100.0 mg/kg/injection, schedule: Q04DX003 (ip), vehicle: Klucel (hydroxypropylcellulose) (HPC)); 0 of 6 (dose: 200.0 mg/kg/injection, schedule: Q04DX003 (ip), vehicle: Klucel (hydroxypropylcellulose) (HPC)); 0 of 6 (dose: 400.0 mg/kg/injection, schedule: Q04DX003 (ip), vehicle: Klucel (hydroxypropylcellulose) (HPC)).

For the compound `CCCCCCCCCCCc1n(Cc2ccccc2)cc[n+]1C`, the survivor count runs as follows: (dose: 2.0 mg/kg/injection, schedule: Q01DX009 (ip), vehicle: acetone) 3 of 6; (dose: 4.0 mg/kg/injection, schedule: Q01DX001 (ip), vehicle: saline) 1 of 4; (dose: 4.0 mg/kg/injection, schedule: Q04DX003 (ip), vehicle: saline) 1 of 6; (dose: 8.0 mg/kg/injection, schedule: Q04DX003 (ip), vehicle: saline) 3 of 6.

For the compound `CCC1(CC2CCCN(C)C2)c2ccccc2Sc2ccccc21` (centres undefined), the survivor count is 0 of 6 (dose: 128.0 mg/kg/injection, schedule: Q01DX015 (ip), vehicle: carboxymethylcellulose (CMC)) and 0 of 6 (dose: 256.0 mg/kg/injection, schedule: Q01DX015 (ip), vehicle: carboxymethylcellulose (CMC)).

As for `Nc1ncnc2c1ncn2C1CC(COP(=O)(O)O)C(O)C1O` (centres undefined), the survivor count under setting [2] is on record as 5 of 6.

Regarding `CCCCCC/C=C/C1CC(=O)OC1=O` (centres undefined), the survivor count (dose: 100.0 mg/kg/injection, schedule: Q01DX009 (ip), vehicle: saline with Tween-80) is on record as 6 of 6 and the survivor count under setting [7] is reported as 0 of 6.
